# In PubChem BioAssay AID504467 (National Center for Advancing Translational Sciences (NCATS), 2011):
# About 7,700 (2.3%) of roughly 330,000 compounds were called active. This list was built around the results that the source calls inconclusive (neither active nor inactive); the mix of calls is not that of the screen. Calls follow the shape of the dose curve; as a rule, active = well fitted inhibition curve with a large enough effect; inconclusive = small, poorly fitted or top-dose-only effect, or effect the other way; inactive = flat fitted curve, though single readings scatter. Potencies of inconclusive entries are doubtful fits and often do not repeat.
# Experiment: qHTS screen for small molecules that inhibit ELG1-dependent DNA repair in human embryonic kidney (HEK293T) cells expressing luciferase-tagged ELG1; also: nearly all actives have a fitted effect of over 55% in size
# Conditions: HEK293T ELG1-luciferase reporter, luminescence, 16 h, DNA damage induced by 5-fluorouridine; activity change, negative = inhibition: at 46.1 µM (top of the series)
# Outline: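 Cells (2,000 per well) received 5-fluorouridine plus test compound or DMSO and were incubated 16 hr at 37 °C, 5% CO2. Luciferase activity was read by luminescence 30 min after ONE-Glo addition; signal suppression marked inhibition of damage-induced ELG1 function.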
# % is scaled to controls: 0 for no effect and ±100 for the full control effect; potency is read from the fitted curve at half-maximal effect.
Compound,"activity change, negative = inhibition",Potency
O=C(Nc1ccccc1)C1=C[C@H](c2ccc(Br)cc2)C[C@H](OCc2ccc(CO)cc2)O1,inactive: -21%,
CC(=O)Nc1nc2ccccc2n1Cc1ccc(C)cc1,,"inconclusive: 25.9 µM [inhibitor, partial curve, poor fit]"
Cc1ccc(NC(=O)c2cccc(OCc3c(C)noc3C)c2)cc1,inactive: 18.3%,
CC1CCN(C(C)C(=O)Nc2cc(S(=O)(=O)N3CCCCC3)ccc2Cl)CC1 (centres undefined),inactive: 34.3%,
O=c1c2ccccc2sc2ccc(Cl)cc12,,"inconclusive: 18.4 µM [activator, partial curve]"
Cc1ccc(NC(=O)CN2CCCCCC2)c(Br)c1,,"inconclusive: 11.2 µM [activator, partial curve]"
COc1cc(C(C(=O)NC2CCCC2)N(Cc2ccccc2)C(=O)c2snc(C(N)=O)c2N)ccc1O (centres undefined),,"inconclusive: 23.1 µM [inhibitor, single point]"
Cc1cc2c(cc(C(=O)OC(C(=O)NCC3CCCO3)C(C)C)n2C)o1 (centres undefined),,"inconclusive: 5.8 µM [inhibitor, partial curve]"
Cc1cc(C)c(S(=O)(=O)N2CCN(S(=O)(=O)N3CCCCCC3)CC2)c(C)c1,,"inconclusive: 20.6 µM [inhibitor, single point]"
O=C(O)CNc1ccccc1C(=O)O,,active: 20.6 µM
O=C(O)CN1C(=O)C(=O)N(Cc2ccc(Cl)cc2Cl)C1=O,inactive: 3.06%,
Cc1cc(C)c(S(=O)(=O)NCC2CCC(C(=O)NCc3ccc4c(c3)OCO4)CC2)c(C)c1 (centres undefined),,"inconclusive: 32.6 µM [inhibitor, single point]"
Cc1ccc2c(c1)C(=O)N1[C@H]3c4ccccc4OC[C@@H]3[C@H](c3ccccc3)[C@]1(C)C(=O)N2,,"inconclusive: 25.9 µM [activator, partial curve, poor fit]"
Cc1cc(N2CCCC(C(=O)Nc3cccc4ccccc34)C2)n2ncnc2n1 (centres undefined),,"inconclusive: 18.3 µM [inhibitor, single point]"
CN1CCN(c2ccc(NC(=S)NC(=O)c3cccc4ccccc34)cc2)CC1,inactive: 1.63%,
CC(=O)c1ccccc1NS(=O)(=O)c1c(C)nn(-c2ccccc2)c1C,,"inconclusive: 10.3 µM [inhibitor, partial curve, poor fit]"
CCN(CC)S(=O)(=O)c1ccc2oc(C(=O)NCCCN3CCOCC3)c(C)c2c1,,"inconclusive: 29.1 µM [inhibitor, single point]"
Cc1nc(C)c(C(=O)OCC(=O)NCCc2ccc(F)cc2)s1,inactive: 4.33%,
COCCn1c(SCC(=O)Nc2cccc(OC)c2)nnc1-c1ccc(Cl)cc1,,"inconclusive: 20.6 µM [inhibitor, single point]"
O=C(c1cn(-c2ccccc2)nc1-c1cccnc1)N1CCN(S(=O)(=O)c2cccc(F)c2)CC1,,"inconclusive: 16.4 µM [inhibitor, partial curve, poor fit]"
Cc1ccc(C(O)(C(=O)NNc2ccccn2)c2ccc(C)cc2)cc1,inactive: -2.12%,
CCOC(=O)c1cc(-c2ccccc2)n(CCC(=O)N2CCN(c3ccccn3)CC2)c1C,,active: 23.1 µM
Cc1cc(NC(=O)CSc2nc3c(sc4ccccc43)c(=O)n2CCCN2CCOCC2)n[nH]1,,"inconclusive: 29.1 µM [inhibitor, single point]"

# 3 of the compounds above, bar-delimited:
Compound | activity change, negative = inhibition | Potency
CN1CCN(c2ccc(NC(=S)NC(=O)c3cccc4ccccc34)cc2)CC1 | inactive: 1.63% | 
CC(=O)c1ccccc1NS(=O)(=O)c1c(C)nn(-c2ccccc2)c1C |  | inconclusive: 10.3 µM [inhibitor, partial curve, poor fit]
COCCn1c(SCC(=O)Nc2cccc(OC)c2)nnc1-c1ccc(Cl)cc1 |  | inconclusive: 20.6 µM [inhibitor, single point]

# The results go on:

Compound,"activity change, negative = inhibition",Potency
CCc1c(C(=O)NCc2ccccc2Cl)[nH]c(C)c1C(C)=O,,"inconclusive: 20.6 µM [inhibitor, partial curve]"
O=C(c1cccs1)N1CCc2ccccc21,,"inconclusive: 23.1 µM [activator, partial curve]"
CC(C)NC(=O)CSc1nnc2sc3ccccc3n12,,"inconclusive: 8.2 µM [activator, partial curve]"
O=C(NC1CCCCC1)c1cccs1,,"inconclusive: 25.9 µM [activator, single point]"
O=C(Nc1nnc(C2CCCO2)s1)c1ccc(Br)cc1 (centres undefined),,"inconclusive: 18.4 µM [activator, partial curve]"
O=C(CSCc1ccc(Cl)cc1)Nc1cccc(C(=O)O)c1,inconclusive: 19.7% [activator],
Cc1cc(NC(=O)CCC(=O)N(Cc2ccco2)C(C(=O)NC2CCCC2)c2ccccc2C)no1 (centres undefined),,"inconclusive: 29.1 µM [inhibitor, single point]"
CCN1CCCC1CN(Cc1cc2ccc(C)cc2[nH]c1=O)C(=S)Nc1cccc(OC)c1 (centres undefined),inactive: -4.62%,
O=C(CNC1CCCCC1)Nc1ccc([N+](=O)[O-])cc1C(=O)Nc1ccccc1F,,"inconclusive: 23.1 µM [inhibitor, partial curve, poor fit]"
CCOC(=O)C1=C(C)OC(N)=C(C#N)C1c1cc(F)ccc1F (centres undefined),,"inconclusive: 14.6 µM [activator, partial curve, poor fit]"
COc1ccccc1C(=O)NCC(=O)NNC(=O)c1cccs1,,"inconclusive: 4.61 µM [activator, partial curve, poor fit]"
Cc1oc2nc(SCC(=O)N3CCCCC3)nc(N)c2c1C,,"inconclusive: 16.4 µM [activator, partial curve]"
O=C(/C=C/c1ccc([N+](=O)[O-])cc1)OCC(=O)N1c2ccccc2Sc2ccccc21,,"inconclusive: 16.4 µM [inhibitor, partial curve]"
Nc1nonc1C(=O)N/N=C\c1cc2c(cc1Cl)OCO2,,"inconclusive: 18.3 µM [activator, single point]"
CC(=O)c1c(C)nc(Nc2nc(C)c3cc(C)ccc3n2)nc1C,,"inconclusive: 16.4 µM [activator, single point]"
COc1ccc(/C=C/C(=O)Nc2ccccc2C(=O)NCC(c2ccc(OC)cc2)N(C)C)cc1 (centres undefined),,"inconclusive: 3.26 µM [activator, full curve, poor fit]"
CC1(C)CC(=O)C2=C(C1)OC(N)=C(C#N)C2c1cn(-c2ccccc2)nc1-c1ccccc1 (centres undefined),,"inconclusive: 18.4 µM [activator, single point]"
COc1ccc(Cl)cc1NC(=O)CN1c2ccccc2CC1C (centres undefined),,"inconclusive: 16.4 µM [inhibitor, single point]"
CC[C@]12c3[nH]c4ccc(Cl)cc4c3CCN1C(=O)[C@@H](CC(=O)NC/C=C(\C)CCC=C(C)C)C[C@@H]2C(=O)N1CCN(C(=O)C2CC2)CC1,,"inconclusive: 20.6 µM [inhibitor, single point]"
O=C(Nc1nc(=O)c2ccccc2s1)c1ccccc1,,"inconclusive: 8.2 µM [activator, partial curve]"
COc1cc(/C=C/C(=O)OCN2C(=O)c3ccccc3C2=O)ccc1OC(F)F,inactive: 1.71%,
Fc1cccc(/C=N/Nc2ncnc3nc[nH]c23)c1,,"inconclusive: 11.6 µM [activator, partial curve]"
O=C(Cc1ncc(C(F)(F)F)cc1Cl)NNc1cccc(F)n1,inactive: 1.21%,

Compound,"activity change, negative = inhibition",Potency
CS(=O)(=O)N1CCN(c2ccc(NC(=O)c3ccc(Br)o3)cc2)CC1,,"inconclusive: 1.64 µM [activator, partial curve]"
CNc1snc(C)c1C(=O)OC(C)C(=O)Nc1ccccc1 (centres undefined),,"inconclusive: 12.6 µM [inhibitor, single point]"
CC(=O)c1ccc(-c2ccc(C(=O)N(C)c3c(N)n(Cc4ccccc4)c(=O)[nH]c3=O)o2)cc1,,"inconclusive: 25.9 µM [activator, single point]"
CCC(=O)Nc1cccc(-c2ccc(N3CCN(C)CC3)nn2)c1,,"inconclusive: 16.4 µM [activator, partial curve]"
O=[N+]([O-])c1ccc(O)c(/C=N/Nc2ccccn2)c1,,"inconclusive: 0.651 µM [inhibitor, partial curve, poor fit]"
CN1CCN(NC(=S)NC(C)(C)CC(C)(C)C)CC1,inactive: -6.42%,
CCCCC(CC)C(=O)NCc1ccc(F)cc1 (centres undefined),inactive: 5.1%,
CCC(C)c1ccc(NC(=O)COc2c(F)c(F)c(C(F)(F)F)c(F)c2F)cc1 (centres undefined),inactive: 8.4%,
C=CCOc1ccccc1CN(C(=O)CCl)c1ccc2c(c1)OCO2,inactive: -1.31%,
COc1ccc(N(CC(=O)Nc2ccc(F)c(Cl)c2)S(=O)(=O)c2c(C)noc2C)cc1,,"inconclusive: 9.2 µM [inhibitor, partial curve, poor fit]"
COc1ccc(NC(=O)c2cnn(-c3ccccc3)c2C)cc1OC,,"inconclusive: 20 µM [activator, partial curve]"
O=C1OCCN1CC(=O)N1CCc2c([nH]c3ccccc23)C1c1ccccn1 (centres undefined),inactive: -2.68%,
COc1ccc(-c2ccc3c(c2)S(=O)(=O)c2cccc(C(=O)NC4CCCC4)c2C3=O)cc1OC,inactive: 23.3%,
O=C(NCc1ccc(Cl)cc1)C(=O)NCC(c1cccnc1)N1CCN(c2ccc(F)cc2)CC1 (centres undefined),,active: 11.6 µM
Cc1ccccc1-n1c(SCC(=O)c2cc(C)n(C)c2C)nnc1-c1ccncc1,,active: 11.2 µM
CCc1ccc(NC(=O)CNC(=O)[C@@H]2Cc3ccccc3CN2C(=O)OC(C)(C)C)cc1,inactive: 15%,
Cc1[nH]c2ccc(F)cc2c1CCN(Cc1ccncc1)C(=S)Nc1ccccc1,,"inconclusive: 23.1 µM [inhibitor, single point]"
O=C(Oc1ccc(Cl)cc1)c1ccc(COC(=O)c2cnccn2)cc1,inactive: 2.5%,
O=C(O)c1csc(Cc2ccccc2)n1,inactive: 7.59%,
CCCCCCSc1cccc(-c2nc3ccccn3c2NCc2ccccc2)c1,inactive: -18.2%,
COc1cccc(C(=O)Cn2c(=N)n(C)c3ccccc32)c1,,"inconclusive: 0.411 µM [activator, partial curve, poor fit]"
COc1ccccc1Nc1nc2cc(C)ccc2cc1C#N,inactive: 6.05%,
CC(C)(C)[C@H]1COC(=O)[C@@H](NC(=O)OCC2c3ccccc3-c3ccccc32)C/C=C\C[C@@H](CC(=O)N[C@@H](CO)Cc2ccccc2)C(=O)N1,inactive: -15%,
